The results in this text go back to the supplement of paper PMC10849652.

Chains of the proteins cited; added tags and fusions are not shown. Lines headed by an entry give the natural chain unless they say otherwise; changes in a name come on top.
UniProt P28066: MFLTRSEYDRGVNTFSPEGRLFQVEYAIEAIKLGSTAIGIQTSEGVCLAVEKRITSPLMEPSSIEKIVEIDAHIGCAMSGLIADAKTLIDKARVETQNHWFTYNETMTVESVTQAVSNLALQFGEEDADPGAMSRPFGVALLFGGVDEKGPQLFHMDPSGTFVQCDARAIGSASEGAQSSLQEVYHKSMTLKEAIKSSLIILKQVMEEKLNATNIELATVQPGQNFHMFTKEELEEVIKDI
UniProt Q9H939: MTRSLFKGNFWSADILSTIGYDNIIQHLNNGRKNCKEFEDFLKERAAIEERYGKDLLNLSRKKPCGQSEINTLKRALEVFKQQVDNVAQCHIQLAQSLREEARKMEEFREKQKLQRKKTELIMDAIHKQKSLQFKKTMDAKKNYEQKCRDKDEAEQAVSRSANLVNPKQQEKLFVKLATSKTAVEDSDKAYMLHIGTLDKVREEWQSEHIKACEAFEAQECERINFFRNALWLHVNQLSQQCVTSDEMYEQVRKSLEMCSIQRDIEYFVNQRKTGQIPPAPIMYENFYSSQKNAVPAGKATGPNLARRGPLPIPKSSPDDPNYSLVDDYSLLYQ
UniProt Q9NRG1: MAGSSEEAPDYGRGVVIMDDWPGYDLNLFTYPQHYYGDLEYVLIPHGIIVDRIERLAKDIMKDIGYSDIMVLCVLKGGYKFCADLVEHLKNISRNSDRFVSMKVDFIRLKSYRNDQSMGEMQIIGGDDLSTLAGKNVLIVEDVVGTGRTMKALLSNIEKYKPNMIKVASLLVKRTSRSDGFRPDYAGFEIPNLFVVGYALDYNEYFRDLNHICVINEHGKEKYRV
UniProt Q86TP1: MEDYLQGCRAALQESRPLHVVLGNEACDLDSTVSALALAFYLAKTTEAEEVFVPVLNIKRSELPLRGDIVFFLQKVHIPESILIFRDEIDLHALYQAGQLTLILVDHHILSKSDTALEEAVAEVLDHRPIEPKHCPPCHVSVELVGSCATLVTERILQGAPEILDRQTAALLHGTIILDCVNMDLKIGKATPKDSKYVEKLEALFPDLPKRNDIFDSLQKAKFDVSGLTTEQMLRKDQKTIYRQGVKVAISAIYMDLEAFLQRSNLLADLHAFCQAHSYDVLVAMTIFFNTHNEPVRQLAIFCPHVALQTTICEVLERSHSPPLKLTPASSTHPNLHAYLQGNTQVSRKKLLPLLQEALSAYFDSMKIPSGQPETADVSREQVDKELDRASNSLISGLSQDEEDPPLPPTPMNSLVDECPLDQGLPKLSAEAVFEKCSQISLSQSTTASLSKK
UniProt O14818: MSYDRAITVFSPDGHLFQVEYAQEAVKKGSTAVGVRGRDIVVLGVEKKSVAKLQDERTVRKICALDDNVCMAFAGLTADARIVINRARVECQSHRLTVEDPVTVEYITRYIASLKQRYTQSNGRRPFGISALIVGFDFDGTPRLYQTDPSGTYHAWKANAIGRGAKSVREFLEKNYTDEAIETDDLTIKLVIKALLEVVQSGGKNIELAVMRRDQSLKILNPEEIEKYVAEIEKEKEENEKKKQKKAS
UniProt P35998: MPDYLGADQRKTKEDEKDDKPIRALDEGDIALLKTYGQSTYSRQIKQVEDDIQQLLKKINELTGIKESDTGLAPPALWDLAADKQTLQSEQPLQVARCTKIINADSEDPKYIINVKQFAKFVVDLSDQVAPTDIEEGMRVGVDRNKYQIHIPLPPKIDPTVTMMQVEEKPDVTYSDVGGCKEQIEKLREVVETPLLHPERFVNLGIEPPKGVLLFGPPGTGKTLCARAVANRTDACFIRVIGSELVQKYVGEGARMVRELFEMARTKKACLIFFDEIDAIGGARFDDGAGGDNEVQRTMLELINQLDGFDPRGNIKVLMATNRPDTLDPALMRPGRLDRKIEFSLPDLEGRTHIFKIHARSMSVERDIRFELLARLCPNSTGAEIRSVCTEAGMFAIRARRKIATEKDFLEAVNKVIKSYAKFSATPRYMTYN
UniProt P07602: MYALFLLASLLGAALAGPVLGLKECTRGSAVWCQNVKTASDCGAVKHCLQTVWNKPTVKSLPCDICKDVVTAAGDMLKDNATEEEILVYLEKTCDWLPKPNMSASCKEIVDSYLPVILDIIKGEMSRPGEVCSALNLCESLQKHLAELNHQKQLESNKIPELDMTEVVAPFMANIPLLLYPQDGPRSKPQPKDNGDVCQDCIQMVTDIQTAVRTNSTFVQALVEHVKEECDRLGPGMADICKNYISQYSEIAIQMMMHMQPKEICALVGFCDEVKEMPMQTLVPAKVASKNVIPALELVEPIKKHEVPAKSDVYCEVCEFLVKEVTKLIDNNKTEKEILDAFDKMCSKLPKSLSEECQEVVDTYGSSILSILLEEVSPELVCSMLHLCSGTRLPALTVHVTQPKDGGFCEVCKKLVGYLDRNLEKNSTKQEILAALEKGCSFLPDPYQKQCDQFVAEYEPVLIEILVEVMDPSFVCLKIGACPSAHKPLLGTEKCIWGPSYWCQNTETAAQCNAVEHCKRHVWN
UniProt P61289: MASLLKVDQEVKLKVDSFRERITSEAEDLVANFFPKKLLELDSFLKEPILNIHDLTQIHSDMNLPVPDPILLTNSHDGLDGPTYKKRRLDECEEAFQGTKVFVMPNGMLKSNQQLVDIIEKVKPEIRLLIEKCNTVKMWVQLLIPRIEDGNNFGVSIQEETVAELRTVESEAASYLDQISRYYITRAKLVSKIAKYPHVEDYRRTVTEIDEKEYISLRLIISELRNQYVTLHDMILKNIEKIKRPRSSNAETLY
UniProt P20618: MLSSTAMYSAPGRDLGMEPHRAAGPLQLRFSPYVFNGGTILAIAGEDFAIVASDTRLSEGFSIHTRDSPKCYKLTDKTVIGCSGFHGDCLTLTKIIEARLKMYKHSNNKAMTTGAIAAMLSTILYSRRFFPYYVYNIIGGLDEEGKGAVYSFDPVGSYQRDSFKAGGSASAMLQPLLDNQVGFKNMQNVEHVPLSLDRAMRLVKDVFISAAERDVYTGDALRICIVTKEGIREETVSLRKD
UniProt Q96BW5: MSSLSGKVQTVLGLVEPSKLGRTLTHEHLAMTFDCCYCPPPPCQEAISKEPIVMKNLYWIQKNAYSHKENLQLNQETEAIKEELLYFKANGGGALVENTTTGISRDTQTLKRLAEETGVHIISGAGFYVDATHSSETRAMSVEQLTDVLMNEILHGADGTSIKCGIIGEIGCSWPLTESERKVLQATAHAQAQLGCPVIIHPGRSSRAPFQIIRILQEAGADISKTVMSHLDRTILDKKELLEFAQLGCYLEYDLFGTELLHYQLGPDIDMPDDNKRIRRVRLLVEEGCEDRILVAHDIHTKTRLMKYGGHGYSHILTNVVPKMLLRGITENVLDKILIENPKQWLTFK
UniProt P25786: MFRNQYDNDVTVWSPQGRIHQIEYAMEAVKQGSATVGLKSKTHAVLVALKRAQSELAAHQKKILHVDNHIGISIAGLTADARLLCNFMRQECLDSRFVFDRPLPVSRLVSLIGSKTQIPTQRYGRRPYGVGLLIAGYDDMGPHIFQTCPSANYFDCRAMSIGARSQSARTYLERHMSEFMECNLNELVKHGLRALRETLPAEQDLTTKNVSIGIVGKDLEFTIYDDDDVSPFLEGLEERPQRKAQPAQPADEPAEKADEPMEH
UniProt Q3MIT2: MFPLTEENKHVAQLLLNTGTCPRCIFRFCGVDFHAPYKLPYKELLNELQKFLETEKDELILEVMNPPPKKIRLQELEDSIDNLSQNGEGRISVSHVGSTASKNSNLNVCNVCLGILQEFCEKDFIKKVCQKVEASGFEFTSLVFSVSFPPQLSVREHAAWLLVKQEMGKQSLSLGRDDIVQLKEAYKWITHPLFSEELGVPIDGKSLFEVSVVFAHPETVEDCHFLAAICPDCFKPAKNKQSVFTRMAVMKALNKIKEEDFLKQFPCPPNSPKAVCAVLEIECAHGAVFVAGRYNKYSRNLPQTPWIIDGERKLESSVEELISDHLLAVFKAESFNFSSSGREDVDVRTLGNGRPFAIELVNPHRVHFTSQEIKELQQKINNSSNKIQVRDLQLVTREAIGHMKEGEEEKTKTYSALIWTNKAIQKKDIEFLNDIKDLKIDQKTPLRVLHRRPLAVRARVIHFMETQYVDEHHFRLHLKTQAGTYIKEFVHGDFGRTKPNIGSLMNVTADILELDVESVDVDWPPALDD
UniProt P25789: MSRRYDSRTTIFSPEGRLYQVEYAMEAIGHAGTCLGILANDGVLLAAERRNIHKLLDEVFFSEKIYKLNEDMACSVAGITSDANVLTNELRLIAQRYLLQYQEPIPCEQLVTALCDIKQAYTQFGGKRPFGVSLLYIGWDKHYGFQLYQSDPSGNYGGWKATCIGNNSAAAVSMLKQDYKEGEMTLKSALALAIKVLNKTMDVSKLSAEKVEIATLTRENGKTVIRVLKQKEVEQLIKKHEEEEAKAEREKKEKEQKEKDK
UniProt O00233: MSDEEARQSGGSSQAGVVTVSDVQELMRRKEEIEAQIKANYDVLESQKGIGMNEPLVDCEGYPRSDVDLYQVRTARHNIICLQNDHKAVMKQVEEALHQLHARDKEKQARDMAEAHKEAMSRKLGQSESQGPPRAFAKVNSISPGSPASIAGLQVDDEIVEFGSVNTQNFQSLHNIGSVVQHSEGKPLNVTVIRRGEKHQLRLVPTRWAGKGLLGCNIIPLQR
UniProt P28074: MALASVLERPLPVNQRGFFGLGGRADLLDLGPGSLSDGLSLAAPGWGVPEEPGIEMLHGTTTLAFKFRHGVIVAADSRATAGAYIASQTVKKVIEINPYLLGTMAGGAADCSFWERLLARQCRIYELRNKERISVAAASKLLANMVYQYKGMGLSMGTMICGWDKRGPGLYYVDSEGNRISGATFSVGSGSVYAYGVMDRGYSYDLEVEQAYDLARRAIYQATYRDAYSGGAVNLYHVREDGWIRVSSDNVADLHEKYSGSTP
UniProt Q06323: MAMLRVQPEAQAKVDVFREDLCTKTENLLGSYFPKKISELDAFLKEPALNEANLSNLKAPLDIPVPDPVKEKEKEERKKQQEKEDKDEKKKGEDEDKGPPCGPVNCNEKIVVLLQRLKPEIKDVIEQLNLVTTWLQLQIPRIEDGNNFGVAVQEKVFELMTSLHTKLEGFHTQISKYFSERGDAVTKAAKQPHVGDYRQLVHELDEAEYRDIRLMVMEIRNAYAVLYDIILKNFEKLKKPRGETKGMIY
UniProt P29350: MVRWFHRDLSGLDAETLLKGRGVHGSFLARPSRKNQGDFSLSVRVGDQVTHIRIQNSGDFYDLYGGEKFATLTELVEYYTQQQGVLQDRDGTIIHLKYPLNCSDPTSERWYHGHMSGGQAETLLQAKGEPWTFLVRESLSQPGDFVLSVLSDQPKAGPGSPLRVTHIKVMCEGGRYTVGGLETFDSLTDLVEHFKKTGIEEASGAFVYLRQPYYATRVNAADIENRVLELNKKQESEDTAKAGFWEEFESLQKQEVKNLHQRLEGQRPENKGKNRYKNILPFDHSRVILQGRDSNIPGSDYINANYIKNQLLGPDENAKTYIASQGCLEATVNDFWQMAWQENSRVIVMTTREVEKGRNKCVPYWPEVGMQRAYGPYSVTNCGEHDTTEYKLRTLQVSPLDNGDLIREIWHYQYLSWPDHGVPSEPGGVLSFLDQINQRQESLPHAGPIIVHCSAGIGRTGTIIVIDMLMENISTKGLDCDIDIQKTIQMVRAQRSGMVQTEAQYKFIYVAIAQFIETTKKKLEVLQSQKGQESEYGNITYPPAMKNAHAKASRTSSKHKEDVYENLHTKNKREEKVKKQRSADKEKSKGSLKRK
UniProt P20962: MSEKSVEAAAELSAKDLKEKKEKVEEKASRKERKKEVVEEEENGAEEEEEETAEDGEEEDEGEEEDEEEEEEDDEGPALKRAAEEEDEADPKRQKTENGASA
UniProt P60900, whole entry, looked up: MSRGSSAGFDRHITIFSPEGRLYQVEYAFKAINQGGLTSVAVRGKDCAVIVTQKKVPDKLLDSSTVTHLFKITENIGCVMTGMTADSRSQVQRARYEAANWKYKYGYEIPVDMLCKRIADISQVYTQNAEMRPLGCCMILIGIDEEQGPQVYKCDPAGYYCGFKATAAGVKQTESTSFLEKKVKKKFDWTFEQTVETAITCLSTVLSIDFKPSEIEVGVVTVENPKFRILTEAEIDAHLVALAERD
UniProt P49721: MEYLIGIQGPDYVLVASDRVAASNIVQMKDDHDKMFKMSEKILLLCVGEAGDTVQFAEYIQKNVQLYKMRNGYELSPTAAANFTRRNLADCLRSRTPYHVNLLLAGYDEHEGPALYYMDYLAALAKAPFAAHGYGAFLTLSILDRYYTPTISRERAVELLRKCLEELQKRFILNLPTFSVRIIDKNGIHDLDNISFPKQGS
UniProt Q969U7: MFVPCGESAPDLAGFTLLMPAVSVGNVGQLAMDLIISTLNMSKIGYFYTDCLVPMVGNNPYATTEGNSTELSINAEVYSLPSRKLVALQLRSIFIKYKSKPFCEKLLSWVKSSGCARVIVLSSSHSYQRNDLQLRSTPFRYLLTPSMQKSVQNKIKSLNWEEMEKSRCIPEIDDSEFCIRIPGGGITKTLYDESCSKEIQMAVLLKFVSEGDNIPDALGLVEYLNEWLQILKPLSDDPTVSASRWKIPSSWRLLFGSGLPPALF

This is one part of the list.

Compound in the first assay: CC(C)(O)CC(=O)NCCn1ccc2ncnc(Nc3ccc(Oc4cccc(C(F)(F)F)c4)c(Cl)c3)c21
Description: log2 fold change, soluble protein after heating vs DMSO (PISA); higher = thermal stabilisation; K562 lysate, 10 uM; active = over 0.2 and 3.5 SD of the protein, either way, in both replicates (recomputed). The method in brief:
(§1)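 Soluble protein was defined as the supernatant remaining after 21,000xg for 90 min, following pooling of heated aliquots and adjustment to 0.5% NP-40 at 4°C. Before that, crude K562 extract at 1 mg/mL protein in PBS pH 7.4 with 1 mM MgCl2 was treated with 10 μM compound for 30 min and heated for 3 min across 48°C-58°C. Quantification used TMTpro 16plex LC-MS/MS with channel sums equalised, and values are log-two fold changes in thermal stability relative to solvent controls from duplicates.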
As for PSMA5 (UniProt P28066), the log2 fold change was inactive: -0.027.
Regarding PTBP1 (UniProt P26599), the log2 fold change was inactive: -0.03.
Still for that read-out and setting: with PTPN9 (UniProt P43378) the figure was inactive: -0.149.
For the target PSTPIP2 (UniProt Q9H939), the log2 fold change was inactive: 0.012.
With PRTFDC1 (UniProt Q9NRG1), the log2 fold change was inactive: 0.051.
As for PRUNE1 (UniProt Q86TP1), the log2 fold change was inactive: -0.037.
Take PRPSAP2 (UniProt O60256): the log2 fold change is inactive: -0.014.
In the case of PSMA7 (UniProt O14818), the log2 fold change is inactive: 0.
The same measure, in the same setting: with PSMC2 (UniProt P35998) the figure was inactive: -0.008; with PRPS1 (UniProt B1ALA9), inactive: -0.001; with PSAP isoform 3 (UniProt P07602), inactive: 0.029.
Regarding PSME3 isoform 2 (UniProt P61289), the log2 fold change was inactive: -0.019.
Take PSMB1 (UniProt P20618): the log2 fold change is inactive: -0.035.
Still for that read-out and setting: with PRRC2B (UniProt Q5JSZ5) the figure was inactive: -0.012; with PTER (UniProt Q96BW5), inactive: -0.052.
Take PSMA1 isoform 2 (UniProt P25786): the log2 fold change is inactive: 0.016.
Take PRPF8 (UniProt Q6P2Q9): the log2 fold change was inactive: -0.005.
Regarding PTGES3 (UniProt Q15185), the log2 fold change was inactive: 0.007.
On to PSME2 (UniProt Q9UL46), for which the log2 fold change was inactive: -0.036.
Still for that read-out and setting: with PUS10 (UniProt Q3MIT2) the figure was inactive: 0.015; with PSMG1 (UniProt O95456), inactive: -0.037; with PTPN1 (UniProt P18031), inactive: 0.024.
For the target PSMA4 (UniProt P25789), the log2 fold change is inactive: -0.021.
For PSMD9 (UniProt O00233), the log2 fold change was inactive: -0.011.
As for PSMD5 (UniProt Q16401), the log2 fold change is inactive: -0.001.
Take PSIP1 (UniProt O75475): the log2 fold change is inactive: -0.027.
The same measure, in the same setting: with PSMB5 (UniProt P28074) the figure was inactive: -0.007.
Turning to PSME1 (UniProt Q06323), the log2 fold change is inactive: 0.021.
Consider PTPN6 isoform 4 (UniProt P29350), for which the log2 fold change was inactive: -0.026.
With PUM1 isoform 3 (UniProt Q14671), the log2 fold change is inactive: -0.031.
In the case of PTMS (UniProt P20962), the log2 fold change is inactive: 0.004.
With PSMA6 (UniProt P60900), the log2 fold change was inactive: -0.012.
Turning to PSMB2 (UniProt P49721), the log2 fold change is inactive: -0.042.
PSMG2 (UniProt Q969U7): the log2 fold change was inactive: -0.004.

Compound in a further assay: CC(C)C1=C2N=C(C=C(N2N=C1)NCC3=CC=CC=C3)NCCCCCCN
Described as above. The method in brief:
as §1
PSMA5 (UniProt P28066): the log2 fold change was inactive: 0.009.
On the same count and under the same terms, with PTBP1 (UniProt P26599) the figure was inactive: 0.006.
Consider PTPN9 (UniProt P43378), for which the log2 fold change is inactive: 0.
For PSTPIP2 (UniProt Q9H939), the log2 fold change was inactive: 0.001.
Take PRTFDC1 (UniProt Q9NRG1): the log2 fold change is inactive: 0.005.
Take PRUNE1 (UniProt Q86TP1): the log2 fold change was inactive: -0.019.
PRPSAP2 (UniProt O60256): the log2 fold change is inactive: 0.002.
On the same count and under the same terms, with PSMA7 (UniProt O14818) the figure was inactive: 0.007; with PSMC2 (UniProt P35998), inactive: 0.011.
Consider PRPS1 (UniProt B1ALA9), for which the log2 fold change was inactive: -0.011.
As for PSAP isoform 3 (UniProt P07602), the log2 fold change was inactive: 0.058.
As to PSME3 isoform 2 (UniProt P61289), the log2 fold change is inactive: -0.019.
With PSMB1 (UniProt P20618), the log2 fold change was inactive: -0.01.
Take PRRC2B (UniProt Q5JSZ5): the log2 fold change is inactive: -0.017.
For PTER (UniProt Q96BW5), the log2 fold change is inactive: -0.003.
Regarding PSMA1 isoform 2 (UniProt P25786), the log2 fold change was inactive: 0.005.
As to PRPF8 (UniProt Q6P2Q9), the log2 fold change is inactive: -0.024.
Still for that read-out and setting: with PTGES3 (UniProt Q15185) the figure was inactive: 0.002; with PSME2 (UniProt Q9UL46), inactive: -0.004.
As to PUS10 (UniProt Q3MIT2), the log2 fold change is inactive: 0.009.
On the same count and under the same terms, with PSMG1 (UniProt O95456) the figure was inactive: -0.001.
In the case of PTPN1 (UniProt P18031), the log2 fold change is inactive: 0.006.
Take PSMA4 (UniProt P25789): the log2 fold change was inactive: -0.003.
On the same count and under the same terms, with PSMD9 (UniProt O00233) the figure was inactive: 0.023; with PSMD5 (UniProt Q16401), inactive: 0.002; with PSIP1 (UniProt O75475), inactive: 0.001.
Same read-out and setting: with PSMB5 (UniProt P28074) the figure was inactive: -0.015; with PSME1 (UniProt Q06323), inactive: -0.016; with PTPN6 isoform 4 (UniProt P29350), inactive: 0.019.
Consider PUM1 isoform 3 (UniProt Q14671), for which the log2 fold change is inactive: -0.035.
Consider PTMS (UniProt P20962), for which the log2 fold change is inactive: 0.02.
On the same count and under the same terms, with PSMA6 (UniProt P60900) the figure was inactive: -0.004; with PSMB2 (UniProt P49721), inactive: -0.007.
For the target PSMG2 (UniProt Q969U7), the log2 fold change is inactive: 0.021.

Compound in the next assay: CC1=C(C(CC(=O)N1)C2=CC=C(C=C2)C(F)(F)F)C(=O)NC3=C(C=C4C(=C3)C=NN4)F
The description is as above. In short, it runs like this:
as §1
As for PSMA5 (UniProt P28066), the log2 fold change was inactive: -0.032.
Same read-out and setting: with PTBP1 (UniProt P26599) the figure was inactive: 0.002; with PTPN9 (UniProt P43378), inactive: 0.236.
On the same count and under the same terms, with PSTPIP2 (UniProt Q9H939) the figure was inactive: -0.049.
For PRTFDC1 (UniProt Q9NRG1), the log2 fold change was inactive: -0.022.
On the same count and under the same terms, with PRUNE1 (UniProt Q86TP1) the figure was inactive: -0.019; with PRPSAP2 (UniProt O60256), inactive: -0.009; with PSMA7 (UniProt O14818), inactive: -0.029.
Take PSMC2 (UniProt P35998): the log2 fold change is inactive: -0.036.
PRPS1 (UniProt B1ALA9): the log2 fold change is inactive: -0.01.
For the target PSAP isoform 3 (UniProt P07602), the log2 fold change is inactive: -0.003.
Same read-out and setting: with PSME3 isoform 2 (UniProt P61289) the figure was inactive: -0.013; with PSMB1 (UniProt P20618), inactive: 0.017.
With PRRC2B (UniProt Q5JSZ5), the log2 fold change is inactive: 0.03.
As to PTER (UniProt Q96BW5), the log2 fold change was inactive: -0.026.
Take PSMA1 isoform 2 (UniProt P25786): the log2 fold change was inactive: -0.014.
Same read-out and setting: with PRPF8 (UniProt Q6P2Q9) the figure was inactive: -0.011.
With PTGES3 (UniProt Q15185), the log2 fold change was inactive: -0.026.
On to PSME2 (UniProt Q9UL46), for which the log2 fold change was inactive: -0.007.
In the case of PUS10 (UniProt Q3MIT2), the log2 fold change was inactive: 0.037.
Take PSMG1 (UniProt O95456): the log2 fold change was inactive: 0.014.
On the same count and under the same terms, with PTPN1 (UniProt P18031) the figure was inactive: -0.005.
As for PSMA4 (UniProt P25789), the log2 fold change is inactive: -0.022.
Take PSMD9 (UniProt O00233): the log2 fold change was inactive: -0.022.
As for PSMD5 (UniProt Q16401), the log2 fold change was inactive: -0.023.
Regarding PSIP1 (UniProt O75475), the log2 fold change is inactive: 0.034.
As to PSMB5 (UniProt P28074), the log2 fold change is inactive: -0.005.
Still for that read-out and setting: with PSME1 (UniProt Q06323) the figure was inactive: -0.037; with PTPN6 isoform 4 (UniProt P29350), inactive: 0.
With PUM1 isoform 3 (UniProt Q14671), the log2 fold change is inactive: 0.032.
Same read-out and setting: with PTMS (UniProt P20962) the figure was inactive: -0.012; with PSMA6 (UniProt P60900), inactive: -0.026; with PSMB2 (UniProt P49721), inactive: -0.032.
On to PSMG2 (UniProt Q969U7), for which the log2 fold change was inactive: -0.021.
